A: 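Methionyl-tRNA synthetase (putative), Leishmania donovani (UniProt E9BF75). Primary screen of methionyl-tRNA synthetase; the read-out is not stated. The test concentration is not given. The values are filed as inhibition. Of about 68,000 compounds tested this way, about 24 (0.035%) reached 50% or more in at least one test.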
B: 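Assay on Mycobacterium tuberculosis, filed only as a heat shock assay from Cornell; the read-out is not stated. The concentration is filed as 10 mM, unlikely as a test dose, so the dose is not known. The record gives no direction; compounds that gave an IC50 in retests scored well above the rest, so higher reads as stronger inhibition. Of about 69,000 compounds tested this way, about 930 (1.4%) reached 50% or more in at least one test.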

Chains of the proteins cited; added tags and fusions are not shown.
UniProt E9BF75, entry or part of it: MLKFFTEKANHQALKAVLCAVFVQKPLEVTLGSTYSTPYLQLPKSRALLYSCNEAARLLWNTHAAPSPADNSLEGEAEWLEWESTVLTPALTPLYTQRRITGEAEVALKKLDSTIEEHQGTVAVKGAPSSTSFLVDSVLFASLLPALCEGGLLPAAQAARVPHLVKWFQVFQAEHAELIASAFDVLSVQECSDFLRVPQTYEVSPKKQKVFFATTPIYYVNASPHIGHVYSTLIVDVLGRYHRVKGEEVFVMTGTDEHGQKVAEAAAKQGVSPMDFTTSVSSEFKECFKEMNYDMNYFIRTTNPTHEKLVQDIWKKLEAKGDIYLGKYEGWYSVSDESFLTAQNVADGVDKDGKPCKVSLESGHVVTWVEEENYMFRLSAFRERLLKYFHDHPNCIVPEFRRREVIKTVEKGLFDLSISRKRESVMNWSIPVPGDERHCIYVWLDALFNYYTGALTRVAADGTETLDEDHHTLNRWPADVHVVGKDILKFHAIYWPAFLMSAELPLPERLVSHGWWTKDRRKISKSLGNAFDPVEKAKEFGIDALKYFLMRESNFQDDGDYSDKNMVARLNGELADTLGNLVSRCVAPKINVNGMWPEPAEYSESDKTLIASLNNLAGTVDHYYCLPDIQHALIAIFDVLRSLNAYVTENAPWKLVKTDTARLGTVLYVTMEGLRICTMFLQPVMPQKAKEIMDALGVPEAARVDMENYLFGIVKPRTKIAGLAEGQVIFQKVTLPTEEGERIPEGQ

All values are in %.
How 0% and 100% were set is not recorded. Most values in the screen are low, and negative values occur.
The compounds are a random part of those screened.
A dash means the value is not listed here; it may have been measured.

compound	A	B
Cc1nc(C)n(CC2CCCN(CC(=O)Nc3nncs3)C2)n1 (stereo not drawn)	16.33%	11.86%
c1ccc2c(c1)CCN(c1ncnc3sc4c(c13)CCNC4)C2	13.33%	12.7%
O=c1[nH]c(NCCO)nc2c1C1(CCCC1)Cc1ccccc1-2	2.332%	-13.31%
COc1ccccc1C(=O)N1CC(=O)N(CC2CC2)CC(O)C1 (stereo not drawn)	12.33%	43.16%
Cc1nc(N2CCOc3ccc(CO)cc3C2)c2nc(C)oc2n1	4.735%	-22.84%
CC(=O)c1c(F)cccc1N1CCC(Cc2cccnc2)CC1	14.5%	19.45%
CC(Cn1cncn1)NC(=O)Nc1ccc(F)cc1OCC1CC1 (stereo not drawn)	19.73%	-0.9085%
Cn1cnnc1C1CCCN(C(=O)NCCc2ccccc2F)C1 (stereo not drawn)	15.97%	-13.94%
CSCC[C@H](NC(C)=O)c1nc(Cc2ccccc2)n[nH]1	5.415%	-53.03%
CC(C)CCN1CCN(C(=O)c2cnccn2)CC1	8.122%	-1.517%
Cn1nnc2c1C(COCC1CC1)CN(Cc1ccoc1)C2 (stereo not drawn)	1.307%	-
CCc1cnc(N2CC3(CCN(S(=O)(=O)C4CC4)C3)C2)nc1	13.45%	5.241%
Cc1ccnc(NC(=O)c2ccc(-n3ncc(C#N)c3N)cc2)c1	18.87%	-15.92%
CCN1CCC12CCN(C(=O)c1ccsc1)C2 (stereo not drawn)	15.22%	-
COc1cc2c(cc1CNCc1cccnc1OC)OC(C)C2 (stereo not drawn)	14.63%	-12.21%
CCOc1ncccc1C(=O)NCCN(CC)C1CC1	11.11%	-2.388%
CCNC(=O)C1CCN(Cc2ccccc2OCC(F)(F)F)CC1	10.89%	-8.839%
CCN1C[C@H]2CCN(C(=O)NC)CC[C@H]2S1(=O)=O	12.97%	-
CN(C)Cc1cnc(C2CCN(C(=O)c3ccc(F)cc3)C2)[nH]1 (stereo not drawn)	12.19%	4.579%
Fc1ccc(OCCNC2CCN(Cc3ccncc3)CC2)c(F)c1	5.076%	-0.4078%
CC(C)n1nccc1C(=O)N1CCC(c2nnsc2S(C)(=O)=O)CC1	16.46%	-9.886%
Cn1nc(C(C)(C)C)cc1NC(=O)CSc1nnc[nH]1	13.59%	-1.238%
COc1ccc(N2CCN(C(=O)CCn3nccc3C)C(C)C2)cc1 (stereo not drawn)	13.64%	5.76%
CCc1ncc(C(=O)NCCNc2ncnc3sccc23)s1	4.676%	6.375%
O=C(Cc1ccsc1)N1CCC(c2n[nH]c3nccnc23)CC1	11.98%	-12.5%
Cc1ccnc(OC[C@]23COC[C@H]2CN(C(=O)c2ccnn2C)C3)n1	9.645%	-
CC(C)c1nc(C2CCCN2CCc2ccncc2)no1 (stereo not drawn)	4.453%	-25.08%
Cc1cc(C)n(CC2CCCN2CCCc2nc3ccccc3o2)n1 (stereo not drawn)	16.11%	3.879%
[H][C@@]12C[C@H](C(=O)NC3CCC3)[C@@]([H])(CN(S(=O)(=O)c3ccccc3)C1)O2	-	4.196%
c1nc2c(c(N3CCCC(Cn4cncn4)C3)n1)CCC2 (stereo not drawn)	10.86%	7.758%
CC1c2ncc(CNC(=O)C3CC3)n2CCN1Cc1ccccn1.O=C(O)C(F)(F)F.O=C(O)C(F)(F)F (stereo not drawn)	-	3.053%
CCN(CCOC)C(=O)c1cc(COc2ccc3c(c2)CCCC3)on1	7.627%	-16.94%
CCOc1ncccc1CNC(=O)N1CCCC1c1ccncc1 (stereo not drawn)	13.66%	3.412%
O=C([C@H]1CCCO1)N1CCCC2(CCN(Cc3ccncc3)C2=O)C1 (stereo partly drawn)	6.863%	-
CCC(CO)N(Cc1cccs1)C(=O)Cc1ccc(O)cc1 (stereo not drawn)	-0.6944%	-16.73%
CS(=O)(=O)N1CCCC12CCCN(C(=O)c1ccc3c(c1)OCO3)C2 (stereo not drawn)	8.591%	3.574%
COc1cccc(CC2CCCN2CC(N)=O)c1 (stereo not drawn)	1.362%	27.07%
CN(Cc1cnc(N)nc1)C(=O)C1CCN(C(=O)C2CCCC2)CC1	13.68%	13.1%
c1cncc(N2CCC3(CCCN(c4ccncc4)C3)CC2)c1	6.301%	-
CCNC(=O)C1CCCN(Cn2nc(C(C)(C)C)ccc2=O)C1 (stereo not drawn)	-1.95%	-14.83%
N#Cc1cccc(N2CCCC3(C2)CN(c2ncc(F)cn2)CCO3)n1.O=C(O)C(F)(F)F (stereo not drawn)	-	-14.1%
Cc1c[nH]nc1C1CCCN(C(=O)Cn2cccn2)C1 (stereo not drawn)	15.48%	18.72%
CS(=O)(=O)N1CCN(CC(O)COc2ccc(Cl)cc2)CC1 (stereo not drawn)	24.31%	-6.333%
Cc1ccc(NC2CCN(C(=O)CCc3nccs3)CC2)nn1	15.56%	15.15%
CC(=O)N1CCC(c2cc(C(F)(F)F)nc3nccn23)CC1	12%	-1.015%
CCN(CC)Cc1nc2c(o1)CN(S(=O)(=O)c1cccs1)C2	14.66%	-
O=C(O)C(F)(F)F.O=C(O)C(F)(F)F.[H][C@@]12CN(Cc3ccco3)C[C@]1([H])[C@H](OC)CCN2Cc1ccoc1	-	-11.69%
COc1ncccc1CNC(=O)C1=NN(c2ccccc2)C(=O)CN1	9.253%	20.22%
Cc1nnc(CN2CCC(N(C)Cc3nnc(C4CC4)n3C)C2)o1 (stereo not drawn)	11.11%	12.75%
CS(=O)(=O)CCn1ccc(NCc2ccc(C#N)cc2)n1	11.23%	-10.77%
CNC(=O)C(NC(=O)c1nccn2ccnc12)c1ccc(F)c(F)c1 (stereo not drawn)	18.1%	0.8571%
Cc1nccnc1N1C[C@H](NC(=O)CNS(C)(=O)=O)[C@@H](C2CC2)C1	10.92%	1.336%
O=C1NC2(CCc3ccccc31)CCN(C(=O)c1cccnc1)C2 (stereo not drawn)	8.723%	5.863%
CNc1cc(C)nc(N2CCN(Cc3ccccc3)CC(O)C2)n1 (stereo not drawn)	7.143%	-0.1533%
Cn1cc(NC(=O)N2CCC(c3ccccc3)CC2)ccc1=O	14.72%	16.42%
CC(C1CCN(Cc2cccc(OC(F)F)c2)CC1)N1CCOCC1 (stereo not drawn)	5.301%	1.128%
COc1ncccc1C(=O)N1CC[C@H]2C[C@H](c3noc(C)n3)O[C@@H]2C1	11.82%	-
Cc1nc(N2CCC(O)(c3ccc(F)cc3)CC2)c2c(C)nn(C)c2n1	24.29%	-12.65%
CN(C)C(=O)N1CCn2nc(CNC(=O)CCc3ccccn3)cc2C1	6.452%	-6.004%
COCCCN1CCC(NC(=O)C2CC2)CC1	7.801%	14.29%
COCC1CN(C(=O)Cc2ccccn2)Cc2ncnn2C1.O=C(O)C(F)(F)F (stereo not drawn)	-	-5.718%
O=C(c1nc(=O)[nH]c2ccccc12)N1CCCC2(CCNC2)C1 (stereo not drawn)	20.97%	-9.805%
OC1(CN2CCC(Oc3cccc(C(F)(F)F)c3)CC2)CNCCOC1 (stereo not drawn)	14.21%	-8.379%
[H][C@@]12CCN(C(=O)c3sccc3NC(C)=O)C[C@@]([H])(CC1)N2C	-	-17.01%
Cc1cc(C(=O)N(C)CCN(C)C(=O)OC(C)(C)C)oc1C	6.983%	-9.955%
CCn1cc(CNc2ccc(Br)c(OC)c2)cn1	2.446%	-14.65%
CCS(=O)(=O)c1ccc2c(c1)N1CCS(=O)(=O)N=C1O2	9.913%	-28.26%
CCNS(=O)(=O)c1ccc(C)c(C(=O)N(C)Cc2ccccc2C)c1	4.891%	-6.566%
COCC1c2c(cnn2C)CCN1Cc1ccsc1 (stereo not drawn)	15.85%	6.124%
Cn1ccnc1SCCNC(=O)Cn1cnc2ccccc2c1=O	12.57%	-25.13%
Cc1occc1C(=O)N1CCCC(C2=Nc3ccccc3S(=O)(=O)N2)C1 (stereo not drawn)	16.86%	-11.4%
N#CCc1ccc(OCC(=O)NS(=O)(=O)c2ccc(Cl)s2)cc1	7.124%	-3.542%
Cn1ncc(NCc2cccc(F)c2)c(Cl)c1=O	19.36%	-1.375%
CCOc1ccc(CN(C)C(C)C(=O)Nc2cc(C)no2)cc1 (stereo not drawn)	9.561%	-36.54%
Cc1ccc(N2Cc3nc(=O)[nH]n3C2=O)cc1	1.299%	-19.01%
O=C(CCN1CCCCC1)Nc1c2c(cc3c1CCC3)CCC2	13.16%	-
COc1ccc(C)cc1NC(=O)Nc1cnc(O)nc1O	15.25%	9.971%
Cc1cc(-c2nn(C)c(Cl)c2CN2CCOCC2CC(=O)O)no1 (stereo not drawn)	12.59%	4.484%
Cc1nnsc1C(=O)NCc1nn(C)c2c1COCC2	10.7%	-17.38%
CCCc1nc(N(C)CCc2noc(C(C)C)n2)c2cnn(C)c2n1	-1.37%	-6.302%
COc1ncccc1-c1cc(C(N)=O)ccn1	3.927%	-147.2%
O=C(CCc1ccco1)NS(=O)(=O)Cc1ccon1	12.04%	16.34%
COCc1cc(NCc2ccccc2-n2cncn2)ncn1	3.284%	-27.83%
O=c1[nH]c(CN2CCCC(Cn3cncn3)C2)nc2ccccc12 (stereo not drawn)	20%	-42.1%

The first 9 entries again:

compound	A	B
Cc1nc(C)n(CC2CCCN(CC(=O)Nc3nncs3)C2)n1 (stereo not drawn)	16.33%	11.86%
c1ccc2c(c1)CCN(c1ncnc3sc4c(c13)CCNC4)C2	13.33%	12.7%
O=c1[nH]c(NCCO)nc2c1C1(CCCC1)Cc1ccccc1-2	2.332%	-13.31%
COc1ccccc1C(=O)N1CC(=O)N(CC2CC2)CC(O)C1 (stereo not drawn)	12.33%	43.16%
Cc1nc(N2CCOc3ccc(CO)cc3C2)c2nc(C)oc2n1	4.735%	-22.84%
CC(=O)c1c(F)cccc1N1CCC(Cc2cccnc2)CC1	14.5%	19.45%
CC(Cn1cncn1)NC(=O)Nc1ccc(F)cc1OCC1CC1 (stereo not drawn)	19.73%	-0.9085%
Cn1cnnc1C1CCCN(C(=O)NCCc2ccccc2F)C1 (stereo not drawn)	15.97%	-13.94%
CSCC[C@H](NC(C)=O)c1nc(Cc2ccccc2)n[nH]1	5.415%	-53.03%

Measurements from “University of Dundee, Small-Polar-MMV Screening Library” (2021), ChEMBL document CHEMBL3988442.